The target of the assay is T1, Deltex3 (human (endogenous in PTC cells)) (UniProt Q8N9I9).
T1 sequence: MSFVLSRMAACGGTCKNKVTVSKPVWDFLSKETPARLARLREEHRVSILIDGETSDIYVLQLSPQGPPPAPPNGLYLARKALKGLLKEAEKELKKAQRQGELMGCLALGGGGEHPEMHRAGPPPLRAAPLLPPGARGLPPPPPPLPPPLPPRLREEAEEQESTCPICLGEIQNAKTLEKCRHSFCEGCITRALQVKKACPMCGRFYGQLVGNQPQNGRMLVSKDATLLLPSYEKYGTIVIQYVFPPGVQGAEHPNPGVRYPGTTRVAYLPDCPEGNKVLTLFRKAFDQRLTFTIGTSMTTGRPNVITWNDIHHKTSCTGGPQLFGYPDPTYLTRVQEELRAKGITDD
The experiment in a line: co-IP; whole cell lysates; immunoprecipitation with DTX3, NDUFAF5 or XRCC5 antibody or normal IgG, 4 °C, Protein A/G PLUS-Agarose beads; western blot of the partner; both orientations. A general note: A western blot detects proteins with antibodies after separation by electrophoresis.

The chains behind the UniProt entries cited, without tags or fusion partners.
UniProt P13010: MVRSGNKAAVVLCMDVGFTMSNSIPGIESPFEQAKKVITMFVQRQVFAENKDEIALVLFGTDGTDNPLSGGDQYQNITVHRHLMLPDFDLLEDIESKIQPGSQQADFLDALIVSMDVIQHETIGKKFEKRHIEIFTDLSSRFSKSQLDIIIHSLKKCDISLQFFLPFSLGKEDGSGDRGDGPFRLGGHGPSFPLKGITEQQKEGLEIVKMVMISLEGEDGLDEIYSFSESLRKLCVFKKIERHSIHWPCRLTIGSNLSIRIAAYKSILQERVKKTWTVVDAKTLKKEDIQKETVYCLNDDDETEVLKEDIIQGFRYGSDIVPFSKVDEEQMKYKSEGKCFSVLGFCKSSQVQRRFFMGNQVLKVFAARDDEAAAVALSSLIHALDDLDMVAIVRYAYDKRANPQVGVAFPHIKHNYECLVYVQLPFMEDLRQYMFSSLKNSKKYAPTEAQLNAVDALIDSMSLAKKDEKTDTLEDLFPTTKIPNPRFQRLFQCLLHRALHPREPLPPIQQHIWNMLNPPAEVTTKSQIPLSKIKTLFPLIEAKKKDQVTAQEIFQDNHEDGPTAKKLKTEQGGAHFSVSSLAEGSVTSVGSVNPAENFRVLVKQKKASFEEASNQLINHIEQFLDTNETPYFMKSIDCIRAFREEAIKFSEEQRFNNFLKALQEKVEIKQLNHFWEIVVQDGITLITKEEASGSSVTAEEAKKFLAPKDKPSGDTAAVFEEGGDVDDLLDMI

These are yes or no findings as the source states them, for the method shown. In cells and extracts the contact can be indirect. Some entries that bind do so weakly or less than the wild type.

For “X-ray repair cross-complementing protein 5 (from UniProt P13010 1-732)”, the binding entry was “binds”.

B1: NADH: Ubiquinone Oxidoreductase Complex Assembly Factor 5 (protein, UniProt Q5TEU4 37-345)
chain: GSTSPRTLNIFDRDLKRKQKNWAARQPEPTKFDYLKEEVGSRIADRVYDIPRNFPLALDLGCGRGYIAQYLNKETIGKFFQADIAENALKNSSETEIPTVSVLADEEFLPFKENTFDLVVSSLSLHWVNDLPRALEQIHYILKPDGVFIGAMFGGDTLYELRCSLQLAETEREGGFSPHISPFTAVNDLGHLLGRAGFNTLTVDTDEIQVNYPGMFELMEDLQGMGESNCAWNRKALLHRDTMLAAAAVYREMYRNEDGSVPATYQIYYMIGWKYHESQARPAERGSATVSFGELGKINNLMPPGKKSQ
Consider B1, for which the binding entry was “binds”.

The values above are taken from publication PMC7778541.
